# Results are given in words; binding and its absence hold for the method and conditions named. In cells and extracts the contact can be indirect. Binding calls can cover weak binding; strength is not graded here.
# Target: T1, hexokinase 2 (HK2) (human (endogenous in A2780)) (UniProt P52789)
# T1 sequence: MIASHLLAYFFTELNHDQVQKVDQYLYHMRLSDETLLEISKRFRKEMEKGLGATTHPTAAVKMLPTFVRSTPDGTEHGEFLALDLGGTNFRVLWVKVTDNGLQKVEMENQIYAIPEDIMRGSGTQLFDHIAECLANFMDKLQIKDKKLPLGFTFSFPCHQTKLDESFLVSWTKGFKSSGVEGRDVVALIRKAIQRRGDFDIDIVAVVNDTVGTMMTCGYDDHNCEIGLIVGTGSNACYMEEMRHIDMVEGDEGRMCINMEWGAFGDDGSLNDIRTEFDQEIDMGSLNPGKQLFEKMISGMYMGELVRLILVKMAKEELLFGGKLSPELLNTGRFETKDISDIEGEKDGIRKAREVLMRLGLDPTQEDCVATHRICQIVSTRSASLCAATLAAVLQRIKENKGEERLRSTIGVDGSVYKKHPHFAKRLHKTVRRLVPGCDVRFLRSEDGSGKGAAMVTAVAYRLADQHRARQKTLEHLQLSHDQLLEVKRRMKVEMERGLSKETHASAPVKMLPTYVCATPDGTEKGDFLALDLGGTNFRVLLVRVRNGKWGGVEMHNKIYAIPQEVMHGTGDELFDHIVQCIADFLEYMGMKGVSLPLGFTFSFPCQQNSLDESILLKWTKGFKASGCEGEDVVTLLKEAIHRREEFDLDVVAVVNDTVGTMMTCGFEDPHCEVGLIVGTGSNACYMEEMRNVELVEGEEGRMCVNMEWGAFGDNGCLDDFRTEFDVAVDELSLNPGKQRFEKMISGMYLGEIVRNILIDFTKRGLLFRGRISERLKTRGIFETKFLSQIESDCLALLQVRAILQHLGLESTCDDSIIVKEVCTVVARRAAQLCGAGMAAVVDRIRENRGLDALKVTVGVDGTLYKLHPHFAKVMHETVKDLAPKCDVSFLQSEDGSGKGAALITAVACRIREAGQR
# Assay: co-IP; A2780 cells transfected with wt-p62 or ΔUBA-p62, cisplatin 5 μg/mL 12 h; NP40 lysis buffer; immunoprecipitation with anti-HK2 and protein G agarose, blot anti-p62 and anti-HK2
substance,measurement,value
UBA domain truncated mutant p62 (pcDNA3.1-ΔUBA-p62) (domain or fragment),binding,binds

# Reference: PMC8070143
